Results reported in article doi:10.1101/2021.12.09.471902.
Where two headings read alike, the source gives them in different places. No constants are given. Whether binding was seen depends on the method and setting. In cells and extracts the contact can be indirect. Some entries that bind do so weakly or less than the wild type. For part of these data: Sequences can lack the tags named with a protein.

Sequences of proteins named here, by UniProt entry; tags and fusion partners are left off. A change or cut given only in a name is not applied to a line headed by its entry.
UniProt Q8IXI2: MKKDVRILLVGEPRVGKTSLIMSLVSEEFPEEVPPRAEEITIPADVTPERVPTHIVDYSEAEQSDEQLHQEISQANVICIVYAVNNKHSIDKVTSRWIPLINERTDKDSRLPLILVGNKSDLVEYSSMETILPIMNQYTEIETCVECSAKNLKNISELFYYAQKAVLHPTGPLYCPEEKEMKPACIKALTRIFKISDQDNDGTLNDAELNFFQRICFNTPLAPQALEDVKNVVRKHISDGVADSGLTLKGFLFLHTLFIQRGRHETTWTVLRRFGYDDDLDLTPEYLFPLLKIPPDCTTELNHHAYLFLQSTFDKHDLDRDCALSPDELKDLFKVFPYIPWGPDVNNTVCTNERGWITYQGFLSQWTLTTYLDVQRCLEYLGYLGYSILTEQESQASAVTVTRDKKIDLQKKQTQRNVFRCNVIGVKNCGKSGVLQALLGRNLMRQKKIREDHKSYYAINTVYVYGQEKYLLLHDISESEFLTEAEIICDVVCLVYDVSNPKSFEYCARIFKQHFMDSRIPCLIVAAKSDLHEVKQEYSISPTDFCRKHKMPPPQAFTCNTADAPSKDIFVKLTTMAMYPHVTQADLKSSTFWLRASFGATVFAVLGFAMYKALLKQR
UniProt P21279: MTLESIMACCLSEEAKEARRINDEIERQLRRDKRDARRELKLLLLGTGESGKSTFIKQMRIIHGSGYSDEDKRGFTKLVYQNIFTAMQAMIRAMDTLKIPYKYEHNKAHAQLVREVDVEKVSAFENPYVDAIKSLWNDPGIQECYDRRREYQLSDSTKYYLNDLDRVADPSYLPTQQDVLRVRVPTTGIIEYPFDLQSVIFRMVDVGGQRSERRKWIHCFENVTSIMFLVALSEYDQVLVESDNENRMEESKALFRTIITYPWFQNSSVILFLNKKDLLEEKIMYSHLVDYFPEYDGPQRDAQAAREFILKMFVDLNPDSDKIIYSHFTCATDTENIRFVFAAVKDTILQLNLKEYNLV

How the values were obtained:
Assay in all cases: co-IP
[1] = target: Myc-Miro1 (UniProt Q8IXI2)
[2] = target: T1, GFP-Alex3 (UniProt Q8BHS6)
T1 sequence: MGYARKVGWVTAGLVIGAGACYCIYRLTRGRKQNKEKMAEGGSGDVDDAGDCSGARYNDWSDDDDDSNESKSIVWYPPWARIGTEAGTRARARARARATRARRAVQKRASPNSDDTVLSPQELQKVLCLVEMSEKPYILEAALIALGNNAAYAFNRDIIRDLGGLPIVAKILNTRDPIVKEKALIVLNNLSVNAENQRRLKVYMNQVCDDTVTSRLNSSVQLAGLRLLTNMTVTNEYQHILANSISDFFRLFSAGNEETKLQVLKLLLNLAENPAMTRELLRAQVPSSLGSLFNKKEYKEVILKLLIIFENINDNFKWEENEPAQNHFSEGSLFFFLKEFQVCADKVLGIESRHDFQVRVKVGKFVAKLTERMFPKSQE

[3] = target: T2, HA-Trak1 (UniProt Q9UPV9)
T2 sequence: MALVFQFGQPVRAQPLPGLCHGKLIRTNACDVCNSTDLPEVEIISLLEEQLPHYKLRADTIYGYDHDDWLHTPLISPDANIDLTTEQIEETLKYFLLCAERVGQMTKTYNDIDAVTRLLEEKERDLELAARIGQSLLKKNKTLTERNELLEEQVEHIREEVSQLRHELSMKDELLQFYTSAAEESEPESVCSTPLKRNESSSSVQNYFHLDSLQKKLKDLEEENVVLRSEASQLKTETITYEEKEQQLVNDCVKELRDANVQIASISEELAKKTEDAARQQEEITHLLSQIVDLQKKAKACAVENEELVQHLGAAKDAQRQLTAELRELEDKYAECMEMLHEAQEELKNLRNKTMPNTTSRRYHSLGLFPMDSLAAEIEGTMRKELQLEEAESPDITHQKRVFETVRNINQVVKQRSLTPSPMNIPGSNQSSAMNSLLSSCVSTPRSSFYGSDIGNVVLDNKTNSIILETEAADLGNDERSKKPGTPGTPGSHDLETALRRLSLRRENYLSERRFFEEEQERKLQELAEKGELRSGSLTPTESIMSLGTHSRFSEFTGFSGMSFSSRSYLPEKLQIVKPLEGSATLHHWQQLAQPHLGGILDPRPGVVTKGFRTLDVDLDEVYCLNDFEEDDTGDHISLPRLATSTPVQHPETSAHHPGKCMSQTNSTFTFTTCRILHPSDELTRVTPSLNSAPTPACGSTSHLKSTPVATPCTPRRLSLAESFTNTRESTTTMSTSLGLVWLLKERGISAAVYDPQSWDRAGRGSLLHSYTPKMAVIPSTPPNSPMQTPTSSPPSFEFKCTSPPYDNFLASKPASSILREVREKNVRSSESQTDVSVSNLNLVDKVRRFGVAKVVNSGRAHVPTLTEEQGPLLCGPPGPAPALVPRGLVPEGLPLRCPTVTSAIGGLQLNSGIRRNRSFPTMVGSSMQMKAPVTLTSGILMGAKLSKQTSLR

[4] = target: T3, HA-Trak2 (UniProt O60296)
T3 sequence: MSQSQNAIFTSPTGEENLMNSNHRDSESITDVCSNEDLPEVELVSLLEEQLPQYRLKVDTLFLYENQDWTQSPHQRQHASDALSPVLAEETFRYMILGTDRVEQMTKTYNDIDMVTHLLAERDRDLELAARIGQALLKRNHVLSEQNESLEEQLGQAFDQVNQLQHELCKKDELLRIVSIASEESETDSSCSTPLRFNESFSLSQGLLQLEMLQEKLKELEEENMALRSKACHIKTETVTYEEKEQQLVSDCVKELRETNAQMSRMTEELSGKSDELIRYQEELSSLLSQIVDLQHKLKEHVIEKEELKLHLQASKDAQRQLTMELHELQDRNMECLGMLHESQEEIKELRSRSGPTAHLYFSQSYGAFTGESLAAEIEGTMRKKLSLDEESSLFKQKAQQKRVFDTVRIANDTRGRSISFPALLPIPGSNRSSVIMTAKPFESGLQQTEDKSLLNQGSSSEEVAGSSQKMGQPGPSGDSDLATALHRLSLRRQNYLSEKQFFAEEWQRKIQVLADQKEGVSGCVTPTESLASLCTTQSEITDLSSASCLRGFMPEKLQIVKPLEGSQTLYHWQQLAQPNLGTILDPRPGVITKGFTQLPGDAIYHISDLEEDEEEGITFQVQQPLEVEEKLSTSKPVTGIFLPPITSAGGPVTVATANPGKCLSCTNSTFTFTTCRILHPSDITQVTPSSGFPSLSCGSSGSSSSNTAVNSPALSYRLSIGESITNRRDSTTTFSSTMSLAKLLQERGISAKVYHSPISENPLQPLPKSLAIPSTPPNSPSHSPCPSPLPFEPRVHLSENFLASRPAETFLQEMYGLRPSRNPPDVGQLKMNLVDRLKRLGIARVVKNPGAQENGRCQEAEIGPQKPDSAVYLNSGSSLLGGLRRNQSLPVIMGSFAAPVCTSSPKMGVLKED

[5] = target: Myc-Miro1 (UniProt Q8IXI2); remark: listed apart in the source
[6] = target: T4, myc-Alex3 (UniProt Q8BHS6)
T4 sequence: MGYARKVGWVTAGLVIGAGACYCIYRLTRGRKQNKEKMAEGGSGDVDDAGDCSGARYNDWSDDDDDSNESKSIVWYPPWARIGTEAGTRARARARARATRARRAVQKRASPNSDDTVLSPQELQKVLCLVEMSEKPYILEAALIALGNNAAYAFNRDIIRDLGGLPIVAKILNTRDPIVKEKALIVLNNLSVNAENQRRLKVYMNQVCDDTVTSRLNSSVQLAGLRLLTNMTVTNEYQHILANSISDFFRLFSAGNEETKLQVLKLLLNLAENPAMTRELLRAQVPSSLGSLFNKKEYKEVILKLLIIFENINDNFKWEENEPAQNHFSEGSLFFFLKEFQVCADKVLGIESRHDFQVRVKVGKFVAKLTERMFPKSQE

## GαqR183C (from UniProt P21279 1-359)
[1]
  binding: binds
[2]
  binding: binds
[3]
  binding: binds
[4]
  binding: binds
[5]
  binding: binds
[6]
  binding: binds

B1: Alex3 (endogenous, human cells) (protein, UniProt Q9UH62 1-379)
chain: MGYARKVGWVTAGLVIGAGACYCIYRLTRGRKQNKEKMAEGGSGDVDDAGDCSGARYNDWSDDDDDSNESKSIVWYPPWARIGTEAGTRARARARARATRARRAVQKRASPNSDDTVLSPQELQKVLCLVEMSEKPYILEAALIALGNNAAYAFNRDIIRDLGGLPIVAKILNTRDPIVKEKALIVLNNLSVNAENQRRLKVYMNQVCDDTITSRLNSSVQLAGLRLLTNMTVTNEYQHMLANSISDFFRLFSAGNEETKLQVLKLLLNLAENPAMTRELLRAQVPSSLGSLFNKKENKEVILKLLVIFENINDNFKWEENEPTQNQFGEGSLFFFLKEFQVCADKVLGIESHHDFLVKVKVGKFMAKLAEHMFPKSQE
[3]
  binding: no binding
[4]
  binding: binds
[5]
  binding: binds
